Reference: PubChem BioAssay (EPA / NIEHS)
Several values for one entry are separate records, joined by “and”; a condition that tells them apart may be missing. Identical values can stand only once. This list was built around the results that the source calls inconclusive (neither active nor inactive); the mix of calls is not that of the screen. For some of these results: Potencies of inconclusive entries are doubtful fits and often do not repeat. Where a structure was tested more than once in an assay, its records may differ in their call. Activity calls are given as the source filed them. Rule for the calls: active = hit-call score of the fitted dose curve at least 0.9, where 1 is the maximum; inconclusive = response in the unintended direction; inactive = score below 0.9.

Amino acid sequences for entries named in this document (tags omitted). A change or cut given only in a name is not applied to a line headed by its entry.
UniProt Q92731, whole entry, looked up: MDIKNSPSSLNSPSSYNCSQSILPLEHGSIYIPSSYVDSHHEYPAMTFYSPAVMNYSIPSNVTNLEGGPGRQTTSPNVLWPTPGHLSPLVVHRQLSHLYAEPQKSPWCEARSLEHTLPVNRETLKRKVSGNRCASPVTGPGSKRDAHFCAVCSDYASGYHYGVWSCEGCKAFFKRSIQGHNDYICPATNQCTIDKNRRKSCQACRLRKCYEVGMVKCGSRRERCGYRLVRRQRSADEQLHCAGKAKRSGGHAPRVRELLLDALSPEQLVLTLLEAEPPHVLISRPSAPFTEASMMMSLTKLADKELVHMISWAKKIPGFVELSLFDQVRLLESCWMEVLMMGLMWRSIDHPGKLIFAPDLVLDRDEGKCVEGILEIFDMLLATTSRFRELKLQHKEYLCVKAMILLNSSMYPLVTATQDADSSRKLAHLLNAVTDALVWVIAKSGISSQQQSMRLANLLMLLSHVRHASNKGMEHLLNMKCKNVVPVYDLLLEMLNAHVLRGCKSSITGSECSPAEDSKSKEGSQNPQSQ
UniProt P42575: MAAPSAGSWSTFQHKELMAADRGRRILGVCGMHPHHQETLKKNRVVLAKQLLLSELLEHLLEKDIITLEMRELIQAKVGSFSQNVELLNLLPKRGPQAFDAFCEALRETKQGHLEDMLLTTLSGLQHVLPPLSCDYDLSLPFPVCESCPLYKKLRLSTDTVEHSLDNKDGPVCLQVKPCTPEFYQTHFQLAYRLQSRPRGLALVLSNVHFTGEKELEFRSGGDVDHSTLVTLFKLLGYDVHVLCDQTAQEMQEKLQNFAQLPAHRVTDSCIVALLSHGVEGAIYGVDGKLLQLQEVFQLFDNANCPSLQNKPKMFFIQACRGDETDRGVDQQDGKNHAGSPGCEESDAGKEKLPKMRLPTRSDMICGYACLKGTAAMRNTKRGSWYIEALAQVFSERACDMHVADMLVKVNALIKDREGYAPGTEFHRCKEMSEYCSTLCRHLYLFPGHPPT
UniProt P18031: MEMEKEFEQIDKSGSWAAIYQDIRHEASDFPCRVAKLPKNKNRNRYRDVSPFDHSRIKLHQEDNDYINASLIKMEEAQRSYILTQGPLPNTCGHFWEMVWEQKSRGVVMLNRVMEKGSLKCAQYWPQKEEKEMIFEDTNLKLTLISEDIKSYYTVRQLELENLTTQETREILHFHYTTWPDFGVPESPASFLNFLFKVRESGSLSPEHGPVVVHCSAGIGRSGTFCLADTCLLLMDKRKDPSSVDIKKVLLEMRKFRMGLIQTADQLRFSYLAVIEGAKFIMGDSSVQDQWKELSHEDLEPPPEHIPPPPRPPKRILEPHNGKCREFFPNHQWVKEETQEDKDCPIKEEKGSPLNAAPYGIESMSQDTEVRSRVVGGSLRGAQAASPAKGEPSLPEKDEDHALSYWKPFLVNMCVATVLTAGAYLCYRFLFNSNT
UniProt Q15722: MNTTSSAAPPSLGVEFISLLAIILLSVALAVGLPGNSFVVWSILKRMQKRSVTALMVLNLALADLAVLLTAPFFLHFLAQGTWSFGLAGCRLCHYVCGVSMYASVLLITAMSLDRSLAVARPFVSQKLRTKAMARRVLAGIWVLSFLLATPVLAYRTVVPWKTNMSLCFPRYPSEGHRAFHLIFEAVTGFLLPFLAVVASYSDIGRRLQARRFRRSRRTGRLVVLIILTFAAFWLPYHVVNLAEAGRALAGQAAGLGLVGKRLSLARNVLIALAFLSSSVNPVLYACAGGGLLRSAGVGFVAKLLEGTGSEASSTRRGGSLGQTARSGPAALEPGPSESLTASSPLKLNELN
UniProt P04150: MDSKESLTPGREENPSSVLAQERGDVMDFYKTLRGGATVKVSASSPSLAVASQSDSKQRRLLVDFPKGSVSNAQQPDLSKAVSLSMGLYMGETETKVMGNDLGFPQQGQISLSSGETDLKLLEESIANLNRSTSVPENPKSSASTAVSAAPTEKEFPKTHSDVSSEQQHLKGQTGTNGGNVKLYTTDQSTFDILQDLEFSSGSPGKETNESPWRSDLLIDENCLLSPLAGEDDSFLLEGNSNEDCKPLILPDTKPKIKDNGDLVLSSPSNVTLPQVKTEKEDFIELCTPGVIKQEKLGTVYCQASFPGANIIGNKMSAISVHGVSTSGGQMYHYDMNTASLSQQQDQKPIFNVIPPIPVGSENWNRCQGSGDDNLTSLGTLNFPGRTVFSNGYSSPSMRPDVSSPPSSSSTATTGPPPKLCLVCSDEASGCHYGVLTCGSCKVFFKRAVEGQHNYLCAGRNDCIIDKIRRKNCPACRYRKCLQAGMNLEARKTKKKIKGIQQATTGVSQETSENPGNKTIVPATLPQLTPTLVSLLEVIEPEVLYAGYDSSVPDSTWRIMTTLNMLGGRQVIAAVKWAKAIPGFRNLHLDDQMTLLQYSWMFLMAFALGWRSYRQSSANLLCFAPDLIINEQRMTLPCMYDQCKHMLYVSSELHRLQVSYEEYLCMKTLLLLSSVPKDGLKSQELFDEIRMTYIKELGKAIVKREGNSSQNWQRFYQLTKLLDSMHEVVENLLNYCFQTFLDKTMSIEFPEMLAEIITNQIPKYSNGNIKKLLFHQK
UniProt P49146, whole entry, looked up: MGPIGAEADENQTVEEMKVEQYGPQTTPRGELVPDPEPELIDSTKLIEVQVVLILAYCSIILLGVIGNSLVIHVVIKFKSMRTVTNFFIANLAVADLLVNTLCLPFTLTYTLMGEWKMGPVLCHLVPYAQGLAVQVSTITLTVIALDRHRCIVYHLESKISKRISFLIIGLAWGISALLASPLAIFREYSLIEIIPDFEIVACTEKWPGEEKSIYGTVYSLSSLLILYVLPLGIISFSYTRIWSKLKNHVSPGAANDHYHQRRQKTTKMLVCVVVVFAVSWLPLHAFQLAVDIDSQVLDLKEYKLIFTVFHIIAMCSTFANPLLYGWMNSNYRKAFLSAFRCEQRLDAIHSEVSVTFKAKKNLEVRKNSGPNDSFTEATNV
UniProt P17706: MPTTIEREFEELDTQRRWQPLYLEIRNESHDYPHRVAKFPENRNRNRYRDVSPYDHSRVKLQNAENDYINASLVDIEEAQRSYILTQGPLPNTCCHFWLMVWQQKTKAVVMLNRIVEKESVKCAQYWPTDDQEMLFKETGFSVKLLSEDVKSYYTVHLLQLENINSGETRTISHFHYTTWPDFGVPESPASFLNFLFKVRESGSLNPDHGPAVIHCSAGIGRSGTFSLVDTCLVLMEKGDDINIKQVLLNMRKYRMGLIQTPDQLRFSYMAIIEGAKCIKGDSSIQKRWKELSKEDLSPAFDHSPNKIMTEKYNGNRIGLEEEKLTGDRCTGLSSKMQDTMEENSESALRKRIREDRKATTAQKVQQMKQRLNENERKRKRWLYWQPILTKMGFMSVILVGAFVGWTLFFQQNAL
UniProt P10275: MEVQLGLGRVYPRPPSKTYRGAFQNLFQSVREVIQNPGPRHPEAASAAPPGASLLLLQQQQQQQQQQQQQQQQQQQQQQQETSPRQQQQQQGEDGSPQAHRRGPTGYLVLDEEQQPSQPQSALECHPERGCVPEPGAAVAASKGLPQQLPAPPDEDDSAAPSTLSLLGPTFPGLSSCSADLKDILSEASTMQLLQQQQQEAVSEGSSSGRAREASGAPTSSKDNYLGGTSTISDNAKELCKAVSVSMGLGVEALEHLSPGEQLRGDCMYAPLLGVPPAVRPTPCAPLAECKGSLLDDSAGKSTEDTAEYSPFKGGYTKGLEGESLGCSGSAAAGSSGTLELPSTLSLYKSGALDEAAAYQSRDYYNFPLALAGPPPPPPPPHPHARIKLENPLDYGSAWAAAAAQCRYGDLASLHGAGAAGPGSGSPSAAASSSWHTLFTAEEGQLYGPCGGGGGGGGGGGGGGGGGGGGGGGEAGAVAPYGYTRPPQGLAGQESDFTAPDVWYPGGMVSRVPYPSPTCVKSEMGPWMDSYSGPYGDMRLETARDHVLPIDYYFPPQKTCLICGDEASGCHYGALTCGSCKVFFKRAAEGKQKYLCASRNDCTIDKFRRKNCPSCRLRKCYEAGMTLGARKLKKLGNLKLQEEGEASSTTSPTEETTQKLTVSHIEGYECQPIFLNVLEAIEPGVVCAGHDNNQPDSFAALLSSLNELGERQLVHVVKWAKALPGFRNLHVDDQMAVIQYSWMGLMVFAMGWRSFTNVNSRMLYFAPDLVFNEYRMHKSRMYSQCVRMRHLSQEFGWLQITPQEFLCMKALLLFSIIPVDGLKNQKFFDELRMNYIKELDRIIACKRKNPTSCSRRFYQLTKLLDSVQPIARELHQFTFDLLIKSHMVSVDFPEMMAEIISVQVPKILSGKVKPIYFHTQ
UniProt P04799: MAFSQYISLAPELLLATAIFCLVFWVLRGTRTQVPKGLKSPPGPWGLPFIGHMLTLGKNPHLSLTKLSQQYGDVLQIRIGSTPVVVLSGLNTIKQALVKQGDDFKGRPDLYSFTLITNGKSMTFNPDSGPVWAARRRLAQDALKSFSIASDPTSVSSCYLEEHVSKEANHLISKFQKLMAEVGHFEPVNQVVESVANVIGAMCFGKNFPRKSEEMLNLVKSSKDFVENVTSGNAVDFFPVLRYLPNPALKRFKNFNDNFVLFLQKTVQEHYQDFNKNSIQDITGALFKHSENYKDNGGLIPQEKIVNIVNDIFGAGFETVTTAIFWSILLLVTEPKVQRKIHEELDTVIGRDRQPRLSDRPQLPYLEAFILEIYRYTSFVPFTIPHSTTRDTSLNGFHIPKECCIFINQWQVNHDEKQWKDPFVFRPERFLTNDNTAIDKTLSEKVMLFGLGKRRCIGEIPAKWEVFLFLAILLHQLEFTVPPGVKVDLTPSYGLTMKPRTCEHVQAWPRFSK
UniProt P05979, whole entry, looked up: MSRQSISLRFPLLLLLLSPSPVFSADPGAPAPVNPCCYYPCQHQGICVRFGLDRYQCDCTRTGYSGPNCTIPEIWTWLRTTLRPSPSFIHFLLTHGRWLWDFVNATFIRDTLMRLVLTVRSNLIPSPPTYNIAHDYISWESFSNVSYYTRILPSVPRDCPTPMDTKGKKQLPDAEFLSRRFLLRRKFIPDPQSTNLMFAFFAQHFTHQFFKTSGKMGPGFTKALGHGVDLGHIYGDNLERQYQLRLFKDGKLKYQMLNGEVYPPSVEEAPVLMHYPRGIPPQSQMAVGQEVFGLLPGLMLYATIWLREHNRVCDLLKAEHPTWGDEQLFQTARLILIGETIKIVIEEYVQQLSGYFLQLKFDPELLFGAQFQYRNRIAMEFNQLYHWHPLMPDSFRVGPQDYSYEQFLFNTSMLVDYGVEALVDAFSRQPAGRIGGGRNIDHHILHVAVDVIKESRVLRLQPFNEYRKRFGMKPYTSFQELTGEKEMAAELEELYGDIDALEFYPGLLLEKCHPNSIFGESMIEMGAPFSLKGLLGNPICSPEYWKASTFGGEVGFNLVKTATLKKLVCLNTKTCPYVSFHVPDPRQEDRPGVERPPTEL
UniProt Q98867: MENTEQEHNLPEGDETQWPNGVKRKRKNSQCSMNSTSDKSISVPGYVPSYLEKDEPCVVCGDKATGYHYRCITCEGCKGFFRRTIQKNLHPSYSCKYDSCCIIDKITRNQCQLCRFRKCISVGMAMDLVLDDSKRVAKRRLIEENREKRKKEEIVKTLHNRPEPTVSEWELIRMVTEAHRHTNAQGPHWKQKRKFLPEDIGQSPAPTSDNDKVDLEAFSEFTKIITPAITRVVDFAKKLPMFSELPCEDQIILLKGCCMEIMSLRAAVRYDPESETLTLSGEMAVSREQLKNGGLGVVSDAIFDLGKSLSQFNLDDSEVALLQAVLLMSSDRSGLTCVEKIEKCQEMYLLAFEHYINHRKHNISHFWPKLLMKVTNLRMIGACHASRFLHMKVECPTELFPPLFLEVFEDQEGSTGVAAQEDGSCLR
UniProt P23975, whole entry, looked up: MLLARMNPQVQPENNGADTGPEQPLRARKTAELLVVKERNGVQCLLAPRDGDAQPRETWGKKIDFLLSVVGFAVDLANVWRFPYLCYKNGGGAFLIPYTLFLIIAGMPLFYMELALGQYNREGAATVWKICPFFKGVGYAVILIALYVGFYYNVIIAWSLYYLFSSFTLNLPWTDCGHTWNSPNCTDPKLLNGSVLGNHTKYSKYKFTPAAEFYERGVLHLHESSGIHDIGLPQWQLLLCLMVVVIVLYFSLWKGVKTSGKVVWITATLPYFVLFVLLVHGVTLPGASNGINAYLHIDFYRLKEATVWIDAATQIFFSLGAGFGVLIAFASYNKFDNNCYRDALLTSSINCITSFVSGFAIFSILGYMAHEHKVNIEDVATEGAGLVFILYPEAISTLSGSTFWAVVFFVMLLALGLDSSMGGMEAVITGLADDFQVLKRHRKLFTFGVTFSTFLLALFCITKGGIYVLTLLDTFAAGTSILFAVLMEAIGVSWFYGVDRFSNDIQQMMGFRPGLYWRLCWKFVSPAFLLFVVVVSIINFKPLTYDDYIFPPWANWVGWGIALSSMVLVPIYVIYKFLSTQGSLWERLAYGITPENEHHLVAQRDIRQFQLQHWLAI

How the values were obtained:
[1] = target: Estrogen receptor (Homo sapiens) + Estrogen receptor beta (Homo sapiens) (UniProt P03372+Q92731); experiment: OT_ER_ERaERb_1440: Odyssey Thera (OT) 24-hour HEK293T Protein-Complementation Assay for Estrogen Receptor-alpha/-beta Homodimer (AID 2283356);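 note: heteromer of ER alpha and ER beta binding domains; hits raise reporter fluorescence and both agonists and antagonists give an increase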
How it was run: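 24 h exposure; HEK293T PCA cells with ERα/ERβ LBD fragments; signal rise in nuclear or whole-cell fluorescence over vehicle.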

[2] = ATG_XTT_Cytotoxicity_XSP2: Cytotoxicity Assessment in the Attagene TRANS-FACTORIAL Multi-Species (XSP2) HepG2 Assay (AID 2283837)
How it was run: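 HepG2 cells, transiently transfected with multiple reporter constructs, exposed to chemical for 24 h. Cell number assessed with XTT fluorescence read-out; loss of signal fitted relative to DMSO.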

[3] = target: human Caspase 2 (CASP2), CASP2 (gene 835) (UniProt P42575); experiment: NVS_ENZ_hCASP2: NovaScreen (NVS) Enzymatic Assay for human Caspase 2 (CASP2) (AID 2283135)
How it was run: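 E. coli-expressed enzyme in a cell-free protease assay, fluorescence read 1 h after dosing. Compounds at 25 uM in duplicate, with concentration-response up to 50 uM for hits; loss of signal against DMSO baseline.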

[4] = target: human Protein Tyrosine Phosphatase Non-receptor Type 1 (PTPN1), PTPN1 (gene 5770) (UniProt P18031); experiment: NVS_ENZ_hPTPN1: NovaScreen (NVS) Enzymatic Assay for human Protein Tyrosine Phosphatase Non-receptor Type 1 (PTPN1) (AID 2283201)
How it was run: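 Cell-free fluorogenic-substrate activity assay on recombinant enzyme, read 1.33 h after dosing by fluorescence and electrophoretic mobility shift; loss of signal vs DMSO baseline. Primary screen in duplicate at 25 uM, hits then run in concentration-response up to 50 uM.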

[5] = target: rat Constitutive Nitric Oxide Synthase (CNOS), Nos1 (gene 24598) (UniProt P29476); experiment: NVS_ENZ_rCNOS: NovaScreen (NVS) Enzymatic Assay for rat Constitutive Nitric Oxide Synthase (CNOS) (AID 2283236)
How it was run: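 Enzyme activity in rat brain membrane preparation, read 1 h after dosing by filter-based radiometric scintillation counting. Primary screen in duplicate at 25 uM; actives (e.g., ≥30% inhibition) then run in concentration-response up to 50 uM.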

[6] = target: human Leukotriene B4 Receptor 1 (LTB4-BLT1), LTB4R (gene 1241) (UniProt Q15722); experiment: NVS_GPCR_hLTB4_BLT1: NovaScreen (NVS) G Protein-Coupled Receptor Assay for human Leukotriene B4 Receptor 1 (LTB4-BLT1) (AID 2283271)
How it was run: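 Radioligand displacement binding on receptor extracted from human neutrophils, cell-free, 1 h after dosing; filter-based scintillation counting. Primary screen in duplicate at 25 uM, actives retested in concentration-response up to 50 uM; loss of signal versus DMSO.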

[7] = target: Glucocorticoid receptor (Homo sapiens) (UniProt P04150); experiment: NVS_NR_hGR: NovaScreen (NVS) Nuclear Receptor Binding Assay for human Glucocorticoid Receptor (GR) (AID 2283363);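 note: activity is loss of specific radioligand binding signal relative to DMSO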
How it was run: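 Competitive displacement of a labelled ligand was measured on cell-free receptor preparations after 16 h exposure. Initial testing used 25 uM in duplicate with plate controls; confirmed actives went into concentration series.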

[8] = target: Neuropeptide Y receptor type 2 (Homo sapiens) (UniProt P49146); experiment: NVS_GPCR_hNPY2: NovaScreen (NVS) G Protein-Coupled Receptor Assay for human Neuropeptide Receptor Y2 (NPY2) (AID 2283277)
How it was run: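 Radioligand binding on membranes extracted from SK-N-MC cells, cell-free, read 1 h after dosing by filter-based scintillation counting. Loss of signal vs DMSO. Primary screen in duplicate at 25 uM; actives followed up in concentration-response up to 50 uM.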

[9] = IUF_NPC1_cytotoxicity_72hr: Cytotoxicity Assessment at 72 hours in the Leibniz Research Institute for Environmental Medicine (IUF) Neural Progenitor Cell Proliferation Assay (NPC1) (AID 2284332);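 note: rising LDH signal means more cytotoxicity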
How it was run: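 Spheres of primary human neural progenitors are plated one per well on day 0 in growth-factor medium and dosed at once. After three days at 37C, supernatant LDH is measured fluorimetrically via resazurin reduction.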

[10] = target: human Protein Tyrosine Phosphatase Non-receptor Type 2 (PTPN2), PTPN2 (gene 5771) (UniProt P17706); experiment: NVS_ENZ_hPTPN2: NovaScreen (NVS) Enzymatic Assay for human Protein Tyrosine Phosphatase Non-receptor Type 2 (PTPN2) (AID 2283207)
How it was run: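 Cell-free recombinant enzyme with fluorescent substrate, product separated by electrophoretic mobility shift; read 1 h after dosing. Primary screen single concentration (25 uM) in duplicate; actives followed in concentration series; loss of signal versus DMSO.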

[11] = CCTE_Simmons_MITO_viability: CellTiter-Glo Viability Assessment for CCTE's HepG2 Seahorse XF Respirometric Screening Assay [post-hoc], Simmons Lab (AID 2284007);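 note: cells exposed to chemical for 90 min before the ATP read; actives lower ATP signal relative to DMSO baseline meaning reduced viability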
How it was run: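 After the Seahorse oxygen-consumption sequence (basal, FCCP, rotenone/antimycin A; 72 min total), HepG2 viability was scored as ATP content by bioluminescence. Chemicals ran at seven concentrations up to 100 uM final for 90 min.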

[12] = target: AR (gene 367) (UniProt P10275); experiment: ACEA_AR_antagonist_80hr: ACEA Biosciences xCELLigence Real-Time Cell Analysis on Androgen Receptor Antagonism for Proliferation (AID 2283787);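 note: 22Rv1 human prostate cancer cells with growth followed by electrical impedance; hits lower the impedance growth signal relative to DMSO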
How it was run: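 Growth-kinetic antagonist readout in 22Rv1 cells, taken 80 h after continuous compound exposure. Activity fitted as signal loss relative to DMSO negative control.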

[13] = target: rat CYP1A2, Cyp1a2 (gene 24297) (UniProt P04799); experiment: NVS_ADME_rCYP1A2: NovaScreen (NVS) CYP450-related Enzyme Activity (ADME) Assay for rat CYP1A2 (AID 2283115)
How it was run: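 Cell-free recombinant rat enzyme with fluorogenic substrate, read by fluorescence intensity 1 hour after dosing. Loss of signal versus acetonitrile negative control; primary screen at 10 uM in duplicate, actives followed in concentration series.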

[14] = target: sheep Cyclooxygenase-1 (Cox1), PTGS1 (gene 443551) (UniProt P05979); experiment: NVS_ENZ_oCOX1: NovaScreen (NVS) Enzymatic Assay for sheep Cyclooxygenase-1 (Cox1) (AID 2283239);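 note: actives reduce cyclooxygenase activity so potencies are for inhibitors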
How it was run: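 Tested in duplicate at 25 uM, then in concentration series if active, against seminal vesicle extract from sheep. Enzyme activity was measured colorimetrically at 0.66 hour and normalised to DMSO.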

[15] = target: Tyrosine-protein phosphatase non-receptor type 11 (Homo sapiens) (UniProt Q06124); experiment: NVS_ENZ_hPTPN11: NovaScreen (NVS) Enzymatic Assay for human Protein Tyrosine Phosphatase Non-receptor Type 11 (PTPN11) (AID 2283202)
How it was run: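 Recombinant human PTPN11 activity on a fluorescent substrate, with substrate/product separated by electrophoretic mobility shift; read 0.5 h after dosing, loss of signal vs DMSO. Duplicate 25 uM screen, then concentration-response up to 50 uM.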

[16] = target: human Sirtuin 1 (SIRT1), SIRT1 (gene 23411) (UniProt Q96EB6); experiment: NVS_ENZ_hSIRT1: NovaScreen (NVS) Enzymatic Assay for human Sirtuin 1 (SIRT1) (AID 2283219)
How it was run: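 Cell-free recombinant SIRT1 with a fluorescent substrate; substrate and product separated by electrophoretic mobility shift and read by fluorescence intensity, 1 h after dosing. Primary screen at 25 uM in duplicate; hits re-run in concentration-response up to 50 uM, relative to DMSO.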

[17] = target: Androgen Receptor/SRC-1 Co-activator, AR (gene 367) (UniProt P10275); experiment: OT_AR_ARSRC1_0480: Odyssey Thera (OT) 8-hour HEK293T Protein-Complementation Assay for Androgen Receptor/SRC-1 Co-activator (AID 2283354);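 note: hits raise the complementation signal above DMSO so AC50 marks enhancers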
How it was run: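 Measures AR/SRC-1 binding by Venus YFP fragment complementation in HEK293T stable lines at 8 h post-dose. Imaging quantifies the 488nm nucleus/cytoplasm ratio in ≥400 cells; DMSO defines baseline.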

[18] = target: human Androgen Receptor (AR), AR (gene 367) (UniProt P10275); experiment: ATG_hAR_XSP2: Attagene TRANS-FACTORIAL Multi-Species (XSP2) HepG2 Assay for human Androgen Receptor (AR) (AID 2283820)
How it was run: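 HepG2 cells transiently transfected with GAL4-UAS reporter units driven by chimeric NR-Gal4 proteins, stimulated with 3 nM 6-alpha-fluorotestosterone plus 1.5 nM norgestrel. Reporter mRNA quantified 24 h after dosing by RT-PCR and capillary electrophoresis; gain-of-signal versus DMSO.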

[19] = target: zebrafish Thyroid Hormone Receptor alpha (TRa), thraa (gene 30670) (UniProt Q98867); experiment: ATG_zfTRa_XSP1: Attagene TRANS-FACTORIAL Multi-Species (XSP1) HepG2 Assay for zebrafish Thyroid Hormone Receptor alpha (TRa) (AID 2283807)
How it was run: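 HepG2 cells transiently transfected with GAL4-UAS reporter units including a zebrafish TRa–Gal4 chimera, dosed 24 h with 3 nM 6-alpha-fluorotestosterone present. Reporter mRNA quantified by RT-PCR and capillary electrophoresis; gain versus DMSO.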

[20] = target: human Norepinephrine Transporter (NET), SLC6A2 (gene 6530) (UniProt P23975); experiment: NVS_TR_hNET: NovaScreen (NVS) Transporter Assay for human Norepinephrine Transporter (NET) (AID 2283377);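 note: cell-free membrane protein extracted from CHO cells expressing human NET; displacement of radioligand from human NET seen as loss of scintillation signal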
How it was run: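 Scintillation counts of filter-retained radioligand served as the readout, taken 1 h post-dosing in a cell-free CHO-derived system. Test chemicals ran first at 25 uM in duplicate; confirmed hits were retested across concentrations.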

In the case of `CC(C)C1CCC(Cc2ccc(Cl)cc2)C1(O)Cn1cncn1` (stereo not given), the AC50 [1] is reported as active: 11.7 µM and the AC50 [2] is reported as active: 42.8 µM.

With `O=c1ccc(=O)[nH][nH]1` the outcome [3] was “inactive”, the AC50 [4] was inconclusive: 45.8 µM and the AC50 [5] was inconclusive: 25 µM.

In the case of `COCC(C)N(C(=O)CCl)c1c(C)csc1C` (stereo not given), the outcome [6] is reported as “inactive” and the AC50 [7] is reported as inconclusive: 0.392 µM.

In the case of `COc1cc(OC)nc(NC(=O)NS(=O)(=O)c2cc(NC=O)ccc2C(=O)N(C)C)n1`, the outcome [5] is reported as “inactive”.

In the case of `CCOP(=S)(OCC)OC(Cl)C(Cl)(Cl)Cl` (stereo not given), the outcome [4] is reported as “inactive”.

For `O=C1C(Cl)=C(Cl)C(=O)c2ccccc21`, the AC50 [1] was inconclusive: 75.2 µM.

For `O=C(NC(=O)c1c(F)cccc1F)Nc1ccc(OC(F)(F)C(F)OC(F)(F)F)c(Cl)c1` (stereo not given), the AC50 [3] was inconclusive: 25 µM.

With `COC(=O)Nc1nc2ccccc2[nH]1` the outcome [8] was “inactive” and the outcome [9] was “inactive”.

With `Cc1cc(O)ccc1Cl` the outcome [10] was “inactive”.

In the case of `COCC(=O)N(c1c(C)cccc1C)C(C)C(=O)OC` (stereo not given), the AC50 [11] is reported as inconclusive: 0.735 µM.

With `Cc1ccccc1CO[C@@H]1C[C@@]2(C(C)C)CC[C@]1(C)O2` the AC50 [12] was active: 76.6 µM.

For `CCOP(=S)(OCC)Oc1ccc(S(C)=O)cc1` (stereo not given), the AC50 [13] was inconclusive: 5 µM and the AC50 [14] was inconclusive: 0.0232 µM.

In the case of `C[Si](Cn1cncn1)(c1ccc(F)cc1)c1ccc(F)cc1`, the AC50 [11] is reported as active: 10.3 µM.

For `CCN(CC)N=O`, the outcome [15] was “inactive” and the AC50 [16] was inconclusive: 25 µM.

With `CC(C)=CC1C(C(=O)OCN2C(=O)C3=C(CCCC3)C2=O)C1(C)C` (stereo not given) the AC50 [12] was active: 69.8 µM.

With `Nc1cccc(Cl)c1` the AC50 [14] was inconclusive: 25 µM.

In the case of `CCOP(=O)(NC(C)C)Oc1ccc(SC)c(C)c1` (stereo not given), the outcome [13] is reported as “inactive”, the outcome [17] is reported as “inactive” and the AC50 [18] is reported as inconclusive: 615 nM and inconclusive: 88.2 µM. For the same molecule, the outcome [9] was “inactive”.

In the case of `CC1(C)[C@H](C(=O)O[C@H](C#N)c2cccc(Oc3ccccc3)c2)[C@@H]1C=C(Br)Br`, the outcome [12] is reported as “inactive” and the outcome [9] is reported as “inactive”.

For `O=P(Oc1ccccc1)(Oc1ccccc1)Oc1ccccc1`, the AC50 [7] was inconclusive: 6.13 µM and the AC50 [19] was active: 25.4 µM.

With `O=S(=O)(O)C(F)(F)C(F)(F)C(F)(F)C(F)(F)C(F)(F)C(F)(F)C(F)(F)C(F)(F)F` the AC50 [4] was active: 26.9 µM, the AC50 [15] was inconclusive: 0.00981 µM and the AC50 [10] was active: 38.9 µM. The outcome [14] was “inactive”, the AC50 [6] was active: 30.1 µM [middle of 4 runs] and the outcome [8] was “inactive”. The AC50 [20] was inconclusive: 938 nM and inconclusive: 25 µM and inconclusive: 24 µM, the AC50 [19] was active: 140 µM and the AC50 [9] was active: 3.31 µM.
